{"source": "patent US12351651B2", "about": "“Polypeptide for repairing mucosal damage or skin wound and use thereof” (Sichuan Gooddoctor Panxi Pharmaceutical Co., Ltd., priority 2020, dated 2025)", "key": {"[1]": {"test_system": "ethanol-induced gastric ulcer in mice", "test": "Ethanol-induced gastric ulcer in mice, administration once a day for 8 days", "type": "in vivo, C57BL/6 mice", "experimental": "1. Experimental animal: SPF grade C57BL/6 mice, from Chengdu Yaokang Biotechnology Ltd, animal license number: SCXK (Chuan) 2020-034.\n2. Method: After adaptive feeding, the mice were randomly divided into four groups with 10 mice in each group, namely, control group (normal group), model group (modeling with absolute ethanol), positive drug group (teprenone 160 mg/kg) and SEQ ID NO: 1 group (1 mg/kg). After the animals were grouped, the control group and model group were treated with pure water, and the other dosed groups were treated with the corresponding drugs once a day for 8 consecutive days. On the 7th day, after treatment, all the animals were fasted for 24 h with free access to water. […] The stomach was cut open along the greater curvature, the content of the stomach was cleaned off with normal saline, and the ulcer index was calculated after being laid flat. Calculation method for ulcer index: If the length of cord-like injury was greater than 1 mm, the length thereof was measured, with 1 point per millimeter; if the width thereof was greater than 1 mm, the score thereof was doubled according to the number of millimeters of the width; and if the length was less than 1 mm, a score of 0.5 was given, and the scores were added up to obtain the ulcer index of the animal."}, "[2]": {"test_system": "ethanol-induced gastric ulcer model in mice", "test": "Anti-ulcer activity of single administration in ethanol-induced model in mice", "type": "in vivo, C57BL/6 mice", "conditions": "single administration by gavage, 0.2 mg/kg, 1 h before absolute ethanol; relative to compound of SEQ ID NO: 1", "experimental": "1. Experimental animal: SPF grade C57BL/6 mice, from Chengdu Yaokang Shengwu Keji Youxian Gongsi, animal license number: SCXK (Chuan) 2020-034.\nAfter adaptive feeding, all the animals were fasted for 24 h with free access to water after administration one day before the experiment. Before modeling, the experimental mice were randomly divided into groups: blank group (5 mice), model group (10 mice), and treatment groups (10 mice per group). Except for the blank group and the model group, which were given sterile water by gavage, the treatment groups were administered with different test compounds by gavage at a dose of 0.2 mg/kg, respectively. One hour after administration, the mice received 0.9 ml/kg absolute ethanol by oral gavage for modeling. After 1 h, the animals were sacrificed by cervical dislocation, the gastric cardia was ligated, the pylorus was occluded, and the whole stomach was removed. 1 mL of 1% formaldehyde solution was injected into the gastric lumen, the cardia was ligated, and the stomach was taken out and immediately immersed in 1% formaldehyde solution. After 30 min, the stomach tissue was taken out and cut open along the greater curvature. The content of the stomach was rinsed off with normal saline, the injury of gastric mucosa in mice were observed and measured after being laid flat, and the ulcer index and ulcer inhibition rate were calculated. […]"}, "mouse gastric organoid": {"test_system": "mouse gastric organoid", "test": "Mouse gastric organoid growth and differentiation", "type": "cell-based"}, "[3]": {"test_system": "chronic atrophic gastritis model in mice", "test": "Chronic atrophic gastritis model in mice (MNNG combined with ranitidine)", "type": "in vivo, Lgr5-GFP-CreERT mice", "conditions": "5 mg/kg daily by gavage, 2 weeks, compared with the model group"}, "[4]": {"test_system": "rats with chronic atrophic gastritis", "test": "Chronic atrophic gastritis in rats", "type": "in vivo, SD rats", "conditions": "for Weight of female rat (mean) / Weight of male rat (mean): gavage, after 8 weeks of administration"}, "HaCAT cells": {"test_system": "HaCAT cells", "test": "Proliferation of HaCAT cells (CellTiter-Glo)", "type": "cell-based", "conditions": "0.4 μg/mL, 72 hours, serum-free medium"}, "[5]": {"test_system": "subintestinal vascular branches of zebrafish", "test": "Repair of simvastatin-induced vascular injury in zebrafish", "type": "in vivo", "conditions": "500 ng/fish intravenous injection, 28° C., 2 days", "from_the_text": "Method: The blood vessels of transgenic vascular green fluorescent zebrafish (Fli-1) were labeled by green fluorescent protein, which was clearly visible under a fluorescence microscope (FIG. 9, the dotted frame in FIG. 9 (yellow in the original picture) was the intestinal blood vessel at the analysis site, and the arrow (white in the original picture) pointed to subintestinal vascular branches), and it became a model organism for observing vascular change. Zebrafish Fli-1 was naturally mated in pairs for breeding. Zebrafish Fli-1 was randomly selected and placed in a 6-well plate one day after fertilization, with 30 fish per well (experimental group). The zebrafish in the normal control group were treated with standard dilution water, and each of the other experimental groups was induced with aqueous simvastatin for 3 hours to establish a zebrafish microvascular loss model. After 3 hours, the aqueous solutions in all the groups were replaced with standard dilution water, and simvastatin induction was terminated. […] Ten zebrafish in each group were randomly selected and photographed under the fluorescence microscope. NIS-Elements D 3.20 advanced image processing software was used for analysis and data collection, and the number of subintestinal vascular branches was analyzed."}, "[6]": {"test": "Gastric and intestinal stability test of polypeptide samples", "type": "in vitro ADME", "conditions": "37° C., 1 hour, HPLC peak area", "experimental": "Method: 1 mg of each of the samples to be tested (Compounds 1, 26, 27 and 28 and EGF) were taken and dissolved in 1 ml of water. 100 ul of sample solution was taken, 900 ul of water was added, and they were uniformly mixed, as a control solution. 100 ul of each sample solution was taken, and 900 ul of artificial gastric juice (W), artificial intestinal juice (X), povidone-iodine solution (I), and hydrogen peroxide solution (O) were respectively added. The solution was placed in a constant temperature water bath at 37° C. for 1 hour, and left to stand for cooling and filtering, as a test solution. The peak areas of the sample before and after treatment were respectively detected by high performance liquid chromatography, and the experimental results were compared based on the peak areas of the samples. The original solution without any treatment after being diluted with water was used as a control, and the changes in the peak areas (contents) of test solutions at corresponding positions were compared and counted."}, "[7]": {"test_system": "aspirin-induced gastric ulcer in rats", "test": "Aspirin-induced gastric ulcer in rats", "type": "in vivo, SD rats", "conditions": "0.3 mg/kg oral gavage once a day for 8 consecutive days", "experimental": "Method: After adaptive feeding, SD rats were divided into three groups (10 rats in each group) by Excel-based complete randomization, namely, a control group, a model group, and a the compound of SEQ ID NO: 1 (0.3 mg/kg) group. After the animals were grouped, they were given corresponding treatments (the control group and the model group were given the same volume of purified water, and the SEQ ID NO: 1 group was given corresponding drug treatment) once a day for 8 consecutive days. On the 7th day after administration, all the animals were fasted for 24 h with free access to water. On the 8th day, except for the control group, the rats in the SEQ ID NO: 1 group and the model group were orally given 250 mg/kg aspirin solution for modeling 30 min after compound administration (or given water). 4 h after modeling, the animals were sacrificed, the cardia was ligated, the pylorus was occluded, and the whole stomach was removed. 8 mL of 1% formaldehyde solution was injected into the gastric lumen, the pylorus was ligated, and the stomach was taken out and immediately immersed in 1% formaldehyde solution for fixation. After 30 min, the stomach was cut open along the greater curvature, the content of the stomach was cleaned off with normal saline, and after the stomach was laid flat, the stomach was observed, and panoramic photos were taken to measure the ulcer area."}, "[8]": {"conditions": "low- and high-dose groups (1 and 3 mg/kg), 8 weeks, compared with the model group, P<0.05"}}, "note": "“And” between values parts separate entries of the source, which are not always exact repeats. Equal entries are not always repeated. Part of at least one peptide drawing is inferred or uncertain, most often the ends. Marks after values point to notes of the source that are not given here. No end group written: not given here."}
{"sequence": "PAAEPVPLVKQD [SEQ ID NO: 1, Pro-Ala-Ala-Glu-Pro-Val-Pro-Leu-Val-Lys-Gln-Asp]", "values": [{"measurement": "Ulcer index", "setting": "[1]; mice, absolute ethanol, gavage once a day for 8 days, SEQ ID NO: 1 1 mg/kg, teprenone 160 mg/kg, n = 10, x ± s", "value": "8.13 ± 4.17"}, {"measurement": "gastric ulcer index of mice (in words)", "setting": "[1]; oral gavage once a day for 8 consecutive days, 1 mg/kg, vs model group", "value": "significantly reduce"}, {"measurement": "Anti-ulcer activity (mean relative ulcer inhibition rate)", "setting": "[2]", "value": "+++ (relative ulcer inhibition rate 0.9-1.20, denoted as “+++”)"}, {"measurement": "volume of the organoids (diameter analysis)", "setting": "mouse gastric organoid; compared with the control group, p<0.05", "value": "significantly larger"}, {"measurement": "growth rate of the organoids", "setting": "mouse gastric organoid; gastric antrum organoids, Day 1-7, compared with the control group", "value": "obviously accelerated"}, {"measurement": "mRNA levels of SST, Gastrin and TFF2", "setting": "mouse gastric organoid; real-time fluorescence quantitative PCR on organoids", "value": "increased significantly"}, {"measurement": "height of the mucosa in the gastric antrum", "setting": "[3]", "value": "substantially recovered to the normal state"}, {"measurement": "number of parietal cells", "setting": "[3]", "value": "increased significantly"}, {"measurement": "number of proliferatively active stem cells (PCNA-positive Lgr5+ cells and Ki67-positive AQP5+ cells)", "setting": "[3]", "value": "increased significantly"}, {"measurement": "structure of the gastric glands (tissue staining)", "setting": "[3]", "value": "recovered to normal"}, {"measurement": "Weight of female rat (mean)", "setting": "[4]; high-dose group 3 mg/kg", "value": 396, "unit": "g"}, {"measurement": "Weight of male rat (mean)", "setting": "[4]; high-dose group 3 mg/kg", "value": "637* g"}, {"measurement": "whole condition of the rats (mobility and responsiveness)", "setting": "[4]; low- and high-dose groups (1 and 3 mg/kg)", "value": "improved"}, {"measurement": "degree of inflammation and atrophy of gastric mucosa", "setting": "[4]; [8]", "value": "significantly improve"}, {"measurement": "weights of the male rats (in words)", "setting": "[4]; [8]", "value": "significantly increased"}, {"measurement": "Weight of female rat (mean)", "setting": "[4]; low-dose group 1 mg/kg", "value": 374, "unit": "g"}, {"measurement": "Weight of male rat (mean)", "setting": "[4]; low-dose group 1 mg/kg", "value": "532* g"}, {"measurement": "proliferation of HaCAT cells", "setting": "HaCAT cells", "value": "significant proliferation-promoting effect"}, {"measurement": "subintestinal microvascular loss caused by simvastatin / number of subintestinal vascular branches", "setting": "[5]", "value": "significantly reverse"}, {"measurement": "W Retained %", "setting": "[6]; artificial gastric juice (W)", "value": "100% and 96%"}, {"measurement": "X Retained %", "setting": "[6]; artificial intestinal juice (X)", "value": 0, "unit": "%"}, {"measurement": "O Retained %", "setting": "[6]; hydrogen peroxide solution (O)", "value": 100, "unit": "%"}, {"measurement": "I Retained %", "setting": "[6]; povidone-iodine solution (I)", "value": "100% and 101%"}, {"measurement": "area of gastric ulcer (in words)", "setting": "[7]", "value": "significantly reduced"}, {"measurement": "bleeding points in the stomach", "setting": "[7]", "value": "reduced"}]}
